Laboratory results from publication PMC6720459.

Amino acid sequences for entries named in this document (tags omitted). A change or cut given only in a name is not applied to a line headed by its entry.
UniProt Q9EPK8: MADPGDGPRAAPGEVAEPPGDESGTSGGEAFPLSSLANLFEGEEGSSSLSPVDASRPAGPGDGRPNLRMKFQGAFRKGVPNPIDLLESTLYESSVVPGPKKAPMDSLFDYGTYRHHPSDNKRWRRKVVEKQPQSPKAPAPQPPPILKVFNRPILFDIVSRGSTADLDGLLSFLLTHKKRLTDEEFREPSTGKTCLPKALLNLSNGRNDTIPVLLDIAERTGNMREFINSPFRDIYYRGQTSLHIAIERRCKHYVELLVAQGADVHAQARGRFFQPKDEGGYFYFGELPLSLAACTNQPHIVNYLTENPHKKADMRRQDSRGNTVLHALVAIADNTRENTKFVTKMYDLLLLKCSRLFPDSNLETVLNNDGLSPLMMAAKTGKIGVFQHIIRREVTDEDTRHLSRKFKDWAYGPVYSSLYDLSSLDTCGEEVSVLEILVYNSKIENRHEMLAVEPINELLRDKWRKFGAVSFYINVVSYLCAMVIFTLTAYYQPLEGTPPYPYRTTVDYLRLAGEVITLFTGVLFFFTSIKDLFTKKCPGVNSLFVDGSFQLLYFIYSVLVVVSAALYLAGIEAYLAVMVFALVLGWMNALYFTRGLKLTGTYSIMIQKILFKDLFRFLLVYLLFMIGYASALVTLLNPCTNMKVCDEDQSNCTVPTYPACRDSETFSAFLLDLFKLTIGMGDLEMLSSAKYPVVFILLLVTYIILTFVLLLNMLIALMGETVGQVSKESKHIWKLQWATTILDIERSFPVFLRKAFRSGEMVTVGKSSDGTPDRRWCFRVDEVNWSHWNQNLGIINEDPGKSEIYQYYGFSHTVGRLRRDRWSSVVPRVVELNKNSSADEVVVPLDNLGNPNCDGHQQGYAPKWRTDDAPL
UniProt P50516: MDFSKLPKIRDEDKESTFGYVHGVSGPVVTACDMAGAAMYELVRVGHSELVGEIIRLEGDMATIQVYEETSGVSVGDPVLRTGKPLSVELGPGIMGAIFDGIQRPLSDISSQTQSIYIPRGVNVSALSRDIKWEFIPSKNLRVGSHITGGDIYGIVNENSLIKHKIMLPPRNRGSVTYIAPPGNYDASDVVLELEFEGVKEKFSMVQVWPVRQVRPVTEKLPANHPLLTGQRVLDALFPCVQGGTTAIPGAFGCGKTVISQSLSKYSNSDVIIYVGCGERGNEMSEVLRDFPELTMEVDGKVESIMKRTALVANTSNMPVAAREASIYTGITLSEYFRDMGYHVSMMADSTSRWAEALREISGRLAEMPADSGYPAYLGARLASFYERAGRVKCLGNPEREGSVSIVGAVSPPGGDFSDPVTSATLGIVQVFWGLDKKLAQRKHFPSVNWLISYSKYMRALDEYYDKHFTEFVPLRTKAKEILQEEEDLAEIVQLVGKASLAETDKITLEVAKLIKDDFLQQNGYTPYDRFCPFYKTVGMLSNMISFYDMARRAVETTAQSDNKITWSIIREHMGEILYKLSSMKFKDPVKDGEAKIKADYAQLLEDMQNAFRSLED

Target: T1, ALDOA (bait of the co-immunoprecipitation analysed by mass spectrometry) (UniProt P05064)
T1 sequence: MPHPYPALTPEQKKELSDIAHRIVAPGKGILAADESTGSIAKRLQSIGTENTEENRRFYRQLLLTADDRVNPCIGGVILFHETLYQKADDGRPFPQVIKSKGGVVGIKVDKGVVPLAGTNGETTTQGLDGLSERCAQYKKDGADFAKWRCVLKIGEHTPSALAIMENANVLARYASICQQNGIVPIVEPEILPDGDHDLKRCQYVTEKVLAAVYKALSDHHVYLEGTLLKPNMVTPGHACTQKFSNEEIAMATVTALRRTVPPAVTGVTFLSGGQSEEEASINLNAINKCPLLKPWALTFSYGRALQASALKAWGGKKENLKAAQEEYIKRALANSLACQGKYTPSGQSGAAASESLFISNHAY
Assay: affinity purification with mass spectrometry; protein complexes co-immunoprecipitated with ALDOA from light organelle fractions containing lysosomes

Substance | binding
TRPV4 (hit of the ALDOA mass spectrometry) (from UniProt Q9EPK8 1-871) | binds
PFK1 (enzyme) | binds
v-ATPase subunit V1A (from UniProt P50516 1-617) | binds

These are yes or no findings as the source states them, for the method shown. Binding seen in cells or lysates may run through a third protein. These calls come from enrichment with a bait or labelling near it, and not all partners need be listed.
